At least one compound was matched to its structure with a doubt left.
Test system: nephrotoxicity caused by CDDP
Assay: Test Example 2: nephrotoxicity (BUN) after single administration of CDDP in the dog
Assay type: in vivo, dog (beagle)
Conditions: SAMe 100 mg/kg with CDDP 4 mg/kg
Method: Nine beagle dogs (weighing 10.2-14.5 kg; 24-36 months of age) were divided into three groups of three animals each. […] BUN values were measured every two days after the administration and compared.

SMILES: C[S+](CC[C@H](N)C(=O)O)C[C@H]1O[C@@H](n2cnc3c(N)ncnc32)[C@H](O)[C@@H]1O (stereo partly drawn) [SAMe, S-adenosyl-L-methionine]
- Survival: all the animals of the SAMe (100 mg/kg) administered group survived

Source: patent US5466678A, “Co-administration of S-adenosyl-L-methionine to reduce the nephrotoxicity of cisplatin therapy” (priority 1992, dated 1995)
